Out of some 320,000 compounds screened, about 22,000 (6.9%) were called active. Inconclusive results, whose numbers are uncertain, are shown with a selection of clear calls. The call rests on the fitted dose curve; in most records, active means well fitted inhibition curve with a large enough effect; inconclusive means small, poorly fitted or top-dose-only effect, or another doubt; inactive means no such curve, though single readings can be large or run the other way. Potencies of inconclusive entries are doubtful fits and often do not repeat.
Experiment: Primary qHTS for delayed death inhibitors of the malarial parasite plastid, 96 hour incubation
Conditions: P. falciparum luciferase reporter growth; series mostly up to 28.7 µM
Method in brief: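 P. falciparum expressing integrated firefly luciferase, in erythrocytes at 2% hematocrit, 0.05% parasitemia, incubated with compounds 96 h at 37 C, 5% CO2. Growth inhibition read as loss of luminescence; two-generation exposure targets delayed-death apicoplast inhibitors.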
Potency means the concentration at half of the fitted maximal effect.

| Compound | Potency |
| --- | --- |
| Cc1ccc(S(=O)(=O)Nc2nccs2)cc1[N+](=O)[O-] | inconclusive: 9.28 µM [inhibitor, single point] |
| COc1cccc(C(=O)NCCNC(=O)c2ccc(C)nc2)c1 | inconclusive: 1.65 µM [inhibitor, full curve] |
| O=C(Cc1ccccc1)N/N=C/c1ccc([N+](=O)[O-])s1 | active: 8.28 µM |
| Cc1ccc(S(=O)(=O)N2CCN(c3ccc([N+](=O)[O-])c4cccnc34)CC2)cc1 | inconclusive: 2.62 µM [inhibitor, partial curve, poor fit] |
| COc1ccc([N+](=O)[O-])cc1N(CC(=O)NCCC1=CCCCC1)S(C)(=O)=O | inactive |
| CC1CC(C)CN(CC(=O)NCCc2ccc(S(N)(=O)=O)cc2)C1 (stereo not given) | inactive |
| CC1(C)CC(=O)C(C=Nc2cccnc2)=C(O)C1 | inactive |
| CCN1CCN(C(c2cccs2)C(C)NC(=S)NC2CCCCC2)CC1 (stereo not given) | inactive |
| COc1cc(C2C(C(C)=O)=C(O)C(=O)N2CCc2c[nH]c3ccccc23)ccc1O (stereo not given) | inconclusive: 10.4 µM [inhibitor, single point] |
| CSc1ccc(C(=O)C2CCCN(C(=O)CCCn3cncn3)C2)cc1 (stereo not given) | inconclusive: 10.4 µM [inhibitor, single point] |
| CCOC(=O)c1c(-c2ccc(F)cc2)csc1NC(=O)CCN1CCOCC1 | inconclusive: 10.4 µM [inhibitor, single point] |
| COC(=O)c1sccc1-c1ccc(/C=N/OCc2c(Cl)cccc2Cl)o1 | inconclusive: 18.5 µM [inhibitor, single point] |
| COc1ccc2c(CCNC(=O)/C=C/c3ccc(OC)c(OC)c3)c[nH]c2c1 | inconclusive: 8.28 µM [inhibitor, partial curve, poor fit] |
| Cc1oc(-c2ccc(Cl)cc2)nc1CS(=O)CC(=O)NCCCN1CCN(Cc2ccccc2)CC1 (stereo not given) | active: 9.28 µM |
| Cc1ccc(CCN2CC(C(=O)NCCN3CCOCC3)CC2=O)cc1 (stereo not given) | active: 11.7 µM |
| Cc1ccc(-c2nn3cnnc3c3ccccc23)cc1 | inactive |
| CN(C)C(=O)c1ccc(NC(=O)CSc2nnc(-c3cccs3)n2N)cc1 | inactive |
| CC(C)CCNc1nc(N)c([N+](=O)[O-])c(NCCO)n1 | inconclusive: 5.86 µM [inhibitor, partial curve] |
| CCN1CCN(C(=O)c2ccc(Cl)c(S(=O)(=O)N(C)c3ccccc3)c2)CC1 | inconclusive: 11.7 µM [inhibitor, single point] |
| CC(=O)c1ccc(OCCCC(=O)Nc2ccc(C)c(S(=O)(=O)N3CCOCC3)c2)cc1 | inconclusive: 9.28 µM [inhibitor, partial curve] |

An excerpt from above in order of count of non-hydrogen atoms, largest number first.

| Compound | Potency |
| --- | --- |
| COc1ccc2c(CCNC(=O)/C=C/c3ccc(OC)c(OC)c3)c[nH]c2c1 | inconclusive: 8.28 µM [inhibitor, partial curve, poor fit] |
| CN(C)C(=O)c1ccc(NC(=O)CSc2nnc(-c3cccs3)n2N)cc1 | inactive |
| CSc1ccc(C(=O)C2CCCN(C(=O)CCCn3cncn3)C2)cc1 (stereo not given) | inconclusive: 10.4 µM [inhibitor, single point] |
